Experimental data as given in EP2533787B1, “USE OF ISORHAMNETIN TRIGLYCOSIDES” (Dr. Willmar Schwabe GmbH & Co. KG, priority 2010, dated 2011).

System: Ratten
Details: in vivo, sc

Question: For `CN1C2CC(OC(=O)C(CO)c3ccccc3)CC1C1OC12` (stereo not shown) [Scopolamin], which “Häufigkeit des Findens der Plattform” value is on record?
Answer: Its value is “deutlich seltener”.
